Assay results as given in PubChem BioAssay AID445 (National Center for Advancing Translational Sciences (NCATS), 2006).
Several values for one entry are separate records, joined by “and”; a condition that tells them apart may be missing. Identical values can stand only once. This is one part of the list. The main result of the screen is listed elsewhere. These columns were measured beside it and carry no call. Most of these compounds were active or inconclusive in the main read-out, so they are no random draw. Words in brackets tell the shape of the fitted curve; partial curves, single points and poor fits give uncertain potencies.

Experiment: IkB Signaling
Conditions: ABC-DLBCL IkBa-CBG/CBR dual luciferase ratio (green luciferase fused to IkBa over red control in OCI-Ly3 lymphoma cells), 4 h
Summary of the method: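 Curves were fitted separately to fusion (green), unfused (red) and ratio luminescence, then classed by r2, magnitude and activity. Cells: OCI-Ly3, 4 h compound plus doxycycline at 37C; 10 uM MG-132 defined full response.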

[1] = measured here: control luc red channel unless noted
[2] = measured here: IkB-luc green channel
[3] = measured here: control luc red channel

COC(=O)c1ccccc1NC(=O)c1ccc(-c2ccccc2F)o1
AC50 [1]: 0.0126 µM [falling, full curve]

COc1ccccc1C(=O)Nc1ccc2nc(N3CCC(C)CC3)cc(C)c2c1
AC50 [1]: 12.6 µM [falling, partial curve]

CCn1c(=O)c2cc(C(=O)N(CCCOC(C)C)Cc3ccco3)sc2c2ccccc21
AC50 [1]: 10 µM [falling, partial curve]

O=C(c1cc2c(s1)-c1ccccc1OC2)N1CCN(c2ccccn2)CC1
AC50 [1]: 7.94 µM [falling, full curve]

Cc1ccc(-c2sc(C(=O)Nc3ccc(Br)cc3)cc2CC(=O)O)cc1
AC50 [1]: 15.8 µM [falling, partial curve]

O=C1Nc2ccccc2C12Nc1ccccc1-c1nc3ccccc3n12 (configuration not stated)
AC50 [1]: 7.94 µM [falling, partial curve]

Nc1c(C(=O)Nc2ccccc2Cl)c2ccccn2c1C(=O)c1ccc(Cl)cc1
AC50 [1]: 0.1 µM [falling, full curve]

COc1ccccc1-n1cnc2cc(C(=O)NCc3ccco3)ccc21
AC50 [1]: 31.6 µM [rising, single point] [measured here: IkB-luc green channel]

COc1ccc(NS(=O)(=O)c2ccc3c(c2)C(C(C)C)C(=O)N3)cc1 (configuration not stated)
AC50 [1]: 31.6 µM [falling, partial curve]

CCn1c(C)c(C2N3CC4(C)CN2CC(CC)(C3)C4=O)c2ccccc21 (configuration not stated)
AC50 [1]: 12.6 µM [falling, partial curve, poor fit]

COc1ccc(Nc2ncnc3c2cnn3-c2ccc(C)cc2C)cc1
AC50 [1]: 25.1 µM [falling, partial curve, poor fit]

Cc1nc2nc(COc3ccccc3)[nH]n2c(=O)c1Cc1ccccc1
AC50 [1]: 3.16 µM [falling, full curve]

Cc1c(C(=O)N(C)Cc2ccccc2)oc2ccc(S(=O)(=O)N3CCCC3)cc12
AC50 [1]: 25.1 µM [falling, partial curve]

Cc1cc(NS(=O)(=O)c2ccc3nc(-c4ccccc4)[nH]c3c2)ccc1Br
AC50 [1]: 10 µM [falling, partial curve]

COc1ccccc1-c1noc(CSc2nnc(Cc3ccccc3)n2-c2ccc(C)c(C)c2)n1
AC50 [1]: 25.1 µM [falling, single point]

Cc1ccc(N2CC(c3nnc(NC(=O)c4ccco4)s3)CC2=O)cc1Cl (configuration not stated)
AC50 [1]: 12.6 µM [falling, partial curve, poor fit]

CSc1ccc(C2c3[nH]c4ccccc4c3CCN2C(=O)CCc2ccccc2)cc1 (configuration not stated)
AC50 [1]: 0.0501 µM [falling, full curve]

C=CC(=O)OCCOCCOCCOCCOC(=O)C=C
AC50 [2]: 5.01 µM [rising, partial curve] and 12.6 µM [rising, partial curve] | AC50 [3]: 31.6 µM [falling, partial curve]

O=C(c1ccc(F)cc1)C(CN1CCOCC1)c1ccccc1 (configuration not stated)
AC50 [2]: 3.98 µM [rising, single point] | AC50 [3]: 3.98 µM [falling, partial curve]

Cc1ccc(-n2nc3c(=O)n(CCCC(=O)NCCc4ccccc4)nc(C)c3c2C)cc1
AC50 [1]: 15.8 µM [falling, partial curve]

Cc1ccccc1-c1nc(CN2CCCC(C(=O)NCc3ccc(Cl)cc3)C2)c(C)o1 (configuration not stated)
AC50 [1]: 25.1 µM [falling, partial curve]

CCc1ccc(S(=O)(=O)c2cn(CC(=O)Nc3ccc(F)c(Cl)c3)c3ccccc3c2=O)cc1
AC50 [1]: 5.01 µM [falling, partial curve]

COc1ccc(C2C(=O)N(C3CCCCC3)CC(=O)N2CCc2ccc(C)cc2)cc1OC (configuration not stated)
AC50 [1]: 0.01 µM [falling, full curve, poor fit]

Cc1ccc(CN2C(=O)C(O)(c3c(C)[nH]c4ccccc34)c3ccccc32)cc1 (configuration not stated)
AC50 [1]: 20 µM [falling, partial curve]

CCCOC(=O)c1cccc(Nc2nc(CCC)cc(=O)[nH]2)c1
AC50 [1]: 20 µM [falling, partial curve]

CCOC(=O)Cn1c(=N)n(Cc2ccc(C(C)(C)C)cc2)c2ccccc21
AC50 [1]: 39.8 µM [falling, single point]

Cc1nc2cc(-c3ccccc3)nn2c(C)c1CCC(=O)N1CCN(c2ccc(F)cc2)CC1
AC50 [1]: 3.16 µM [falling, partial curve]

Cc1ccc(-n2nnnc2SCc2nnc(-c3ccccc3Br)o2)c(C)c1
AC50 [1]: 12.6 µM [falling, partial curve]

COc1ccc(OC)c(S(=O)(=O)n2nnc3ccccc32)c1
AC50 [1]: 10 µM [falling, partial curve]

COc1ccccc1C1NC(=O)c2n[nH]c(-c3cccs3)c21 (configuration not stated)
AC50 [1]: 25.1 µM [falling, single point]
